This assay has as its target Flag-tagged Vimentin Head-Rod (HR) domain truncated mutant (human). Briefly: co-IP; exogenous tagged proteins in transfected cells (MGC803 and MKN45 where named); low salt lysis buffer, supernatant with antibody (HA, Flag, 6xHis, MYC) and beads at 4 C overnight.

These are yes or no findings as the source states them, for the method shown. In cells and extracts the contact can be indirect. A result given as binding can be weak or reduced; the word gives no strength. Sequences can lack the tags named with a protein.

B1: HA-tagged Ladinin-1 (LAD1), full-length open reading frame (protein, UniProt O00515 1-517)
chain: MAVSRKDWSALSSLARQRTLEDEEEQERERRRRHRNLSSTTDDEAPRLSQNGDRQASASERLPSVEEAEVPKPLPPASKDEDEDIQSILRTRQERRQRRQVVEAAQAPIQERLEAEEGRNSLSPVQATQKPLVSKKELEIPPRRRLSREQRGPWALEEESLVGREPEERKKGVPEKSPVLEKSSMPKKTAPEKSLVSDKTSISEKVLASEKTSLSEKIAVSEKRNSSEKKSVLEKTSVSEKSLAPGMALGSGRRLVSEKASIFEKALASEKSPTADAKPAPKRATASEQPLAQEPPASGGSPATTKEQRGRALPGKNLPSLAKQGASDPPTVASRLPPVTLQVKIPSKEEEADMSSPTQRTYSSSLKRSSPRTISFRMKPKKENSETTLTRSASMKLPDNTVKLGEKLERYHTAIRRSESVKSRGLPCTELFVAPVGVASKRHLFEKELAGQSRAEPASSRKENLRLSGVVTSRLNLWISRTQESGDQDPQEAQKASSATERTQWGQKSDSSLDAEV
In the case of B1, the binding entry was “binds”.

Source of the values: PMC10506284.
